Paper PMC6945063 (2019)
Positions count from the first letter of the chain named. Names may count otherwise. These are yes or no findings as the source states them, for the method shown. For part of these data: In cells and extracts the contact can be indirect. Some entries that bind do so weakly or less than the wild type. For part of these data: Sequences can lack the tags named with a protein. Blank lines part the entries; values can stand above or below the molecule they belong to.

Amino acid sequences for entries named in this document (tags omitted). A change or cut given only in a name is not applied to a line headed by its entry. Chains listed by the source or under a name are the forms on record and can include a tag or linker. Residues count along the entry.
GFP‐LC3C Δ C‐terminal WT (Q9BXW4, residues 1-126): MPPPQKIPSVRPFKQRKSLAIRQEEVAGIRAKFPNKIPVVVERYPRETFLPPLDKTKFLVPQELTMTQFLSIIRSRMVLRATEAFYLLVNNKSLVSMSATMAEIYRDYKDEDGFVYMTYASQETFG
GFP‐LC3C Δ C‐terminal S93/96D (Q9BXW4, form named): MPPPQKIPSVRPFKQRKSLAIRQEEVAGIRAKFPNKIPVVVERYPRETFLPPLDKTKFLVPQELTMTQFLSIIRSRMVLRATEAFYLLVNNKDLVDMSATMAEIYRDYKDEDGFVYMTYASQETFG
UniProt Q9Y4G2: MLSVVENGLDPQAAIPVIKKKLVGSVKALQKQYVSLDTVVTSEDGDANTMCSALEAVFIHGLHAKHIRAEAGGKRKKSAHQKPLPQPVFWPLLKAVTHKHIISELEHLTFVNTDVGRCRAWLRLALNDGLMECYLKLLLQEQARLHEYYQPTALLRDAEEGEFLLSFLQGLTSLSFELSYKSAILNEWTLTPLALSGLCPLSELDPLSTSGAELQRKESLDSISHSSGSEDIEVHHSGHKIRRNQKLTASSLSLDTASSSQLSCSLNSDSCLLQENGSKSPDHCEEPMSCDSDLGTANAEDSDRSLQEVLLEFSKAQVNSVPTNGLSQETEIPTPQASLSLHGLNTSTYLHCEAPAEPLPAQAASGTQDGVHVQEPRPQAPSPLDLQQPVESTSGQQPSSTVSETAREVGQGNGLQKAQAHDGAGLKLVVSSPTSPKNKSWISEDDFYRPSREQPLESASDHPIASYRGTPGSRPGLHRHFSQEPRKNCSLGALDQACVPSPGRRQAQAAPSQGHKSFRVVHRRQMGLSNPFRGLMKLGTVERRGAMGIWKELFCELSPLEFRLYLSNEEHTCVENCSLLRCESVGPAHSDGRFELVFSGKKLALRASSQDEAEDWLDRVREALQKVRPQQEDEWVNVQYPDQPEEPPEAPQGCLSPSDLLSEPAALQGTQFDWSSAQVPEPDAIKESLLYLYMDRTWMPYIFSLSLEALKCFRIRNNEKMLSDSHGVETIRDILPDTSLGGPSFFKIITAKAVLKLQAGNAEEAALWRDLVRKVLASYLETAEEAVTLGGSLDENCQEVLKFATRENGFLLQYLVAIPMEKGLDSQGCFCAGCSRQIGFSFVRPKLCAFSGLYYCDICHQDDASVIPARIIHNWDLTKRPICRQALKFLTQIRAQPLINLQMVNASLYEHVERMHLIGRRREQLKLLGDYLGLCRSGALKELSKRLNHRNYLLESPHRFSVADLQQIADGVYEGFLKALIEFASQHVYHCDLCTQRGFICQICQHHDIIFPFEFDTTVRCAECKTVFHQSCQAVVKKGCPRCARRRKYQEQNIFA
UniProt Q96CV9: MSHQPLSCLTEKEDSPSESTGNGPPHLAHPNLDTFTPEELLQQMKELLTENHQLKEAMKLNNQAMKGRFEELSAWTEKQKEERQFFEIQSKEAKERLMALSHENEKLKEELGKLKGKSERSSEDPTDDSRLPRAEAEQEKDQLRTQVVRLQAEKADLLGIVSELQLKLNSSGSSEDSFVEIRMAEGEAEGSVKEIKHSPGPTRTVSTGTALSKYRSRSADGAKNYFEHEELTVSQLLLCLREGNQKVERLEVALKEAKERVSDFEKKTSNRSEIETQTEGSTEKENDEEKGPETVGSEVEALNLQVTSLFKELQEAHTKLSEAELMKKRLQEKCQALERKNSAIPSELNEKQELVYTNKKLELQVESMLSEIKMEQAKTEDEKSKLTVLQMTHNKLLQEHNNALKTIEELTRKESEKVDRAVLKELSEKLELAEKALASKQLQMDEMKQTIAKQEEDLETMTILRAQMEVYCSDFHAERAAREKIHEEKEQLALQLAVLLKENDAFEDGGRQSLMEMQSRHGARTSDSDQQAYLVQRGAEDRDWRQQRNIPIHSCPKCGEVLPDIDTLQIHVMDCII

Legend:
[1] = biological target: GFP‐GABARAP‐L2 WT (human) (UniProt P60520); assay: co-IP; HEK293T co-transfected with Flag‐ATG4A, B, C or D and GFP‐LC3C or GFP‐GABARAP‐L2 (WT or mutants); GFP‐Trap_A beads, 2 h at 4°C, Western blot
[2] = biological target: GFP‐GABARAP‐L2 S87/88D (human) (UniProt P60520); assay: as above
GST‐ATG4A = biological target: T1, GST‐ATG4A (UniProt Q8WYN0); assay: BLI; GST‐ATG4A (1 μg/ml) immobilised on anti‐GST biosensors; His‐GABARAP‐L2 WT or S87/88D at 20, 10, 5 and 0.625 μM; 300 mM NaCl, 0.004% Tween‐20, 0.05% BSA in PBS; Octet RED96; 1:1 global fitting, steady-state Kd; both purified
T1 sequence: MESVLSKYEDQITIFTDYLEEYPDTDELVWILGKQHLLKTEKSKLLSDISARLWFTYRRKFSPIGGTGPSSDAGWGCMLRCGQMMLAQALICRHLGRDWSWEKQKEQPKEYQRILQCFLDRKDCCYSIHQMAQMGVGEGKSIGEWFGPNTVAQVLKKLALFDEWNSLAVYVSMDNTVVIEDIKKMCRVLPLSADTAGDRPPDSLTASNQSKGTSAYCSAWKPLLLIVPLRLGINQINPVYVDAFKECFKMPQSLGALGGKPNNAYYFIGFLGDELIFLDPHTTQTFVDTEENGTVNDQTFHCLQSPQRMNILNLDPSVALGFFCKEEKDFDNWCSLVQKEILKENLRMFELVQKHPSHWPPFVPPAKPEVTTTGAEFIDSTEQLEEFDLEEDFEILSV

[3] = biological target: GFP‐GABARAP‐L2 Δ C‐terminal WT (human) (UniProt P60520); assay: co-IP; HEK293T transfected with GFP, GFP‐LC3C Δ C‐terminal or GFP‐GABARAP‐L2 Δ C‐terminal (WT or phospho-mimetic); GFP IP, Western blot for endogenous p62, OPTN, PLEKHM1
[4] = biological target: GFP‐GABARAP‐L2 Δ C‐terminal S87/88D (human) (UniProt P60520); assay: as above
[5] = biological target: GFP‐LC3C Δ C‐terminal S93/96D (human) (UniProt Q9BXW4); assay: as above
[6] = biological target: GFP‐LC3C Δ C‐terminal WT (human) (UniProt Q9BXW4); assay: as above
GST‐GABARAP‐L2 (human) = GST‐GABARAP‐L2 (human) (UniProt P60520); assay: pull-down; GST‐LC3C or GST‐GABARAP‐L2 on glutathione‐Sepharose beads mixed with cleared extracts of HeLa or HEK293T cells (endogenous TBK1, or HEK293T transfected with TBK1 constructs), 2 h at 4°C, washed four times in lysis buffer, Western blot; only the target purified

Molecule: endogenous PLEKHM1 (from UniProt Q9Y4G2 1-1056)
binding [3]: binds
binding [4]: binds

Molecule: endogenous optineurin (OPTN) (from UniProt Q96CV9 1-577)
binding [3]: binds
binding [4]: binds

B1: GST‐ATG4A (enzyme)
chain: T1 sequence
binding [1]: binds
binding [2]: binds

B3: TBK1 K38A (enzyme, UniProt Q9UHD2 1-729)
chain: MQSTSNHLWLLSDILGQGATANVFRGRHKKTGDLFAIAVFNNISFLRPVDVQMREFEVLKKLNHKNIVKLFAIEEETTTRHKVLIMEFCPCGSLYTVLEEPSNAYGLPESEFLIVLRDVVGGMNHLRENGIVHRDIKPGNIMRVIGEDGQSVYKLTDFGAARELEDDEQFVSLYGTEEYLHPDMYERAVLRKDHQKKYGATVDLWSIGVTFYHAATGSLPFRPFEGPRRNKEVMYKIITGKPSGAISGVQKAENGPIDWSGDMPVSCSLSRGLQVLLTPVLANILEADQEKCWGFDQFFAETSDILHRMVIHVFSLQQMTAHKIYIHSYNTATIFHELVYKQTKIISSNQELIYEGRRLVLEPGRLAQHFPKTTEENPIFVVSREPLNTIGLIYEKISLPKVHPRYDLDGDASMAKAITGVVCYACRIASTLLLYQELMRKGIRWLIELIKDDYNETVHKKTEVVITLDFCIRNIEKTVKVYEKLMKINLEAAELGEISDIHTKLLRLSSSQGTIETSLQDIDSRLSPGGSLADAWAHQEGTHPKDRNVEKLQVLLNCMTEIYYQFKKDKAERRLAYNEEQIHKFDKQKLYYHATKAMTHFTDECVKKYEAFLNKSEEWIRKMLHLRKQLLSLTNQCFDIEEEVSKYQEYTNELQETLPQKMFTASSGIKHTMTPIYPSSNTLVEMTLGMKKLKEEMEGVVKELAENNHILERFGSLTMDGGLRNVDCL
binding (GST‐GABARAP‐L2 (human)): binds

Continued, values first:

binding [1]: binds
binding [2]: binds
Molecule: Flag‐ATG4D (from UniProt Q86TL0 1-474) (enzyme)

binding (GST‐ATG4A): binds
Molecule: His‐GABARAP‐L2 S87/88D (from UniProt P60520 1-117)

binding [5]: binds
binding [6]: binds
binding [3]: binds
binding [4]: binds
Molecule: endogenous p62 (from UniProt Q13501 1-440)

binding (GST‐GABARAP‐L2 (human)): binds
B2: Endogenous TBK1 (enzyme, UniProt Q9UHD2 1-729)
chain: B3 chain with A38K

binding (GST‐GABARAP‐L2 (human)): binds
B4: full‐length TBK1 (enzyme, UniProt Q9UHD2 1-729)
chain: B3 chain with A38K

binding [1]: binds
binding [2]: binds
B5: Flag‐ATG4C (enzyme, UniProt Q96DT6 1-458)
chain: MEATGTDEVDKLKTKFISAWNNMKYSWVLKTKTYFSRNSPVLLLGKCYHFKYEDEDKTLPAESGCTIEDHVIAGNVEEFRKDFISRIWLTYREEFPQIEGSALTTDCGWGCTLRTGQMLLAQGLILHFLGRAWTWPDALNIENSDSESWTSHTVKKFTASFEASLSGEREFKTPTISLKETIGKYSDDHEMRNEVYHRKIISWFGDSPLALFGLHQLIEYGKKSGKKAGDWYGPAVVAHILRKAVEEARHPDLQGITIYVAQDCTVYNSDVIDKQSASMTSDNADDKAVIILVPVRLGGERTNTDYLEFVKGILSLEYCVGIIGGKPKQSYYFAGFQDDSLIYMDPHYCQSFVDVSIKDFPLETFHCPSPKKMSFRKMDPSCTIGFYCRNVQDFKRASEEITKMLKFSSKEKYPLFTFVNGHSRDYDFTSTTTNEEDLFSEDEKKQLKRFSTEEFVLL
